The values below come from paper PMC10476967.

Sequences of proteins named here, by UniProt entry; tags and fusion partners are left off.
UniProt Q9Z2E1: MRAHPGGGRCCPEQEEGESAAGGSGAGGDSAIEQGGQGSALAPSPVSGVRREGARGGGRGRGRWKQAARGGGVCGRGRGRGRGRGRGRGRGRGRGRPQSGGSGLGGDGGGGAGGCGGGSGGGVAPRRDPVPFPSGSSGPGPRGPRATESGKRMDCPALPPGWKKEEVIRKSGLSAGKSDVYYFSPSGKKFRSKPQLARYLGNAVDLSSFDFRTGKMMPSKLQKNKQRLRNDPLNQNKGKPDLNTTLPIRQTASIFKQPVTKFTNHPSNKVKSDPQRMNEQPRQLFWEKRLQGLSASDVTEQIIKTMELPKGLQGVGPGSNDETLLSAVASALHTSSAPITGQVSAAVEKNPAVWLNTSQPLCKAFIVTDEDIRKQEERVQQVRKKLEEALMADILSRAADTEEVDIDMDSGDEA
UniProt P19091: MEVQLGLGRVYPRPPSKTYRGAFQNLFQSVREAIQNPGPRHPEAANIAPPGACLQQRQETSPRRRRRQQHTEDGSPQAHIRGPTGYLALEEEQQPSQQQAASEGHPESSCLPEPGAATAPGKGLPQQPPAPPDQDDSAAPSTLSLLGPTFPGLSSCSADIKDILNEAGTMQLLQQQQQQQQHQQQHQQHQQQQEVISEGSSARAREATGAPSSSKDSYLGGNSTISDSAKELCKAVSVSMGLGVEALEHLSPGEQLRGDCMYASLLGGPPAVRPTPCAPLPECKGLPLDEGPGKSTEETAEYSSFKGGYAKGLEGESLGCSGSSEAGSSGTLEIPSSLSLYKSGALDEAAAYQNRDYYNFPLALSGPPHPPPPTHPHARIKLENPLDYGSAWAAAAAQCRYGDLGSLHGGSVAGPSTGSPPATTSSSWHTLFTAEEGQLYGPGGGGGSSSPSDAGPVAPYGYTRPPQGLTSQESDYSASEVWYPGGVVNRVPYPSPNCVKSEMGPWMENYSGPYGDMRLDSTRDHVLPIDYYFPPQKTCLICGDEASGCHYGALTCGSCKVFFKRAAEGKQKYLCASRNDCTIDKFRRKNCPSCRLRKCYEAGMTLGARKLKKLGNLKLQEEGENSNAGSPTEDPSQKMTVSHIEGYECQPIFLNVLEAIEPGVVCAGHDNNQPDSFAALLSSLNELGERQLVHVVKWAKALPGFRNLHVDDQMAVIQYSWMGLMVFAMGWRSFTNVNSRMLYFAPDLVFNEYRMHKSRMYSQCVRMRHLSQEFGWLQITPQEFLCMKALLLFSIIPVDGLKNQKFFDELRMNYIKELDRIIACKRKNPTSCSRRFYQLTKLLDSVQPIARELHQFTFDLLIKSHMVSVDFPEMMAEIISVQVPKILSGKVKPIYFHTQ
UniProt P34152: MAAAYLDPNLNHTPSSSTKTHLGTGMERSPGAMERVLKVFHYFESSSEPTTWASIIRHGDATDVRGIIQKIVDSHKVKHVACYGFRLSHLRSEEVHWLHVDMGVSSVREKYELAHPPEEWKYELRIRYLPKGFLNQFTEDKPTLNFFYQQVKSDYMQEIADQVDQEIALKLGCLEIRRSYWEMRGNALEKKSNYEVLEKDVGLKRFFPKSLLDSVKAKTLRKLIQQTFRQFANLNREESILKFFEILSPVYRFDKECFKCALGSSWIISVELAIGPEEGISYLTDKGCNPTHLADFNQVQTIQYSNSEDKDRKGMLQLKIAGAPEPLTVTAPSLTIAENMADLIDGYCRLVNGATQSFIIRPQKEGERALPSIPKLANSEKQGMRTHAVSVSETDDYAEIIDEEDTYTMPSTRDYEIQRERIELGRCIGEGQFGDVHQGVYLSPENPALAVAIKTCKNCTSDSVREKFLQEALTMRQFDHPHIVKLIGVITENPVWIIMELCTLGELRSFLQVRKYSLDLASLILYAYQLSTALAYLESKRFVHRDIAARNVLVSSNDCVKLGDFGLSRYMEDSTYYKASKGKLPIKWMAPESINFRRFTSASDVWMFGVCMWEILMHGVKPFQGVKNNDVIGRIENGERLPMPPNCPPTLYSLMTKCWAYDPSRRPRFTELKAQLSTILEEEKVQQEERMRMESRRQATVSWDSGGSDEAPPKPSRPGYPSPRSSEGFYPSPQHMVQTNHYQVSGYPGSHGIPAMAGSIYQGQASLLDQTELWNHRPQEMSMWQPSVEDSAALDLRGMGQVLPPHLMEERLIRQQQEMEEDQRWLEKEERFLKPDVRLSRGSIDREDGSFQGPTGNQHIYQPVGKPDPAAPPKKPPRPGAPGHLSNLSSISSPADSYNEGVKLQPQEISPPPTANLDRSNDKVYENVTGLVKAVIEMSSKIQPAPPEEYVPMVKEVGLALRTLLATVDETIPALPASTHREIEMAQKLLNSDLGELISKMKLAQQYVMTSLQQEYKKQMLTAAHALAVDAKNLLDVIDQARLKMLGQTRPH
UniProt Q62219: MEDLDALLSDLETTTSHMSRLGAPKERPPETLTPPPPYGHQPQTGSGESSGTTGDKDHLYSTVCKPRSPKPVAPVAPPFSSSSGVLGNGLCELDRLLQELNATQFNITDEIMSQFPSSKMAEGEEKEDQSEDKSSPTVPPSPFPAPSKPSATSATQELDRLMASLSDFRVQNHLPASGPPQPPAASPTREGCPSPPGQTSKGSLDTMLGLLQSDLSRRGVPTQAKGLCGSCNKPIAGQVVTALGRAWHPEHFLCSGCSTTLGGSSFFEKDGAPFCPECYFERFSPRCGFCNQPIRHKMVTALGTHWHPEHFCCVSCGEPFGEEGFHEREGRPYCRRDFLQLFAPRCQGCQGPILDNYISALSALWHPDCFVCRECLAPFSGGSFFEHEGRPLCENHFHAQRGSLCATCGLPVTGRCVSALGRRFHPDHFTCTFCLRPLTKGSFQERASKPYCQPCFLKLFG

In assay [1] the target is MBD2 (mouse (endogenous in C2C12)) (UniProt Q9Z2E1). The experiment in a line: proximity ligation; Duolink in situ Red Starter Kit Mouse/Rabbit; endogenous proteins in differentiating C2C12 cells, detected with antibody pairs.
The target in assay [2] is androgen receptor (mouse (endogenous in C2C12)) (UniProt P19091). The assay is described as above.

These are yes or no findings as the source states them, for the method shown. Binding seen in cells or lysates may run through a third protein. Some results given as binding are weak or reduced against the parent protein; the word gives no strength.

Take FAK (from UniProt P34152 1-1052): the binding entry in assay [1] is listed as “binds”.
Regarding Hic-5 (from UniProt Q62219 1-461), the binding entry in assay [2] was “binds”.
